# Test results from PubChem BioAssay (NCATS).
# Protein sequences, listed by entry. Tags and fused reporters are not part of them. Lines headed by an entry give the natural chain unless they say otherwise; changes in a name come on top.
# UniProt P04150: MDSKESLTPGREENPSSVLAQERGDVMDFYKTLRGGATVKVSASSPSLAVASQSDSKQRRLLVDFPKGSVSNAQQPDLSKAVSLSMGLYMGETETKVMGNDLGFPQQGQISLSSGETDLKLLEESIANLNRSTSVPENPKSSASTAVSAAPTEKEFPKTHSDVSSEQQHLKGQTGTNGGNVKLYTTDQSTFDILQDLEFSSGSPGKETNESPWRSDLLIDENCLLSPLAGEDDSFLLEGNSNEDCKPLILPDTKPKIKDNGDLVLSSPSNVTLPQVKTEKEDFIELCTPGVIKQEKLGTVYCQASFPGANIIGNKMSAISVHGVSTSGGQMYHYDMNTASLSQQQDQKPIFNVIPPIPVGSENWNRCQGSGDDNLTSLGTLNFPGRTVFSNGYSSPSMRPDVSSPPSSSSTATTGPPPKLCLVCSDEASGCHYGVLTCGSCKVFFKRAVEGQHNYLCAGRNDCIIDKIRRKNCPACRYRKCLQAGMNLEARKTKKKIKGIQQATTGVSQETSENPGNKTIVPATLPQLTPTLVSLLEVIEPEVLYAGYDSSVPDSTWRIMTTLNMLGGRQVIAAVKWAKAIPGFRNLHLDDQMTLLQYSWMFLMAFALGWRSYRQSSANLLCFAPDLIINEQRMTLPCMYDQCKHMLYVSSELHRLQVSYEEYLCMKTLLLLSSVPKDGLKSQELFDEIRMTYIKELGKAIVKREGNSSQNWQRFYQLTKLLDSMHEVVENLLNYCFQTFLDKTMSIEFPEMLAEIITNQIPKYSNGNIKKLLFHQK
# UniProt O94782: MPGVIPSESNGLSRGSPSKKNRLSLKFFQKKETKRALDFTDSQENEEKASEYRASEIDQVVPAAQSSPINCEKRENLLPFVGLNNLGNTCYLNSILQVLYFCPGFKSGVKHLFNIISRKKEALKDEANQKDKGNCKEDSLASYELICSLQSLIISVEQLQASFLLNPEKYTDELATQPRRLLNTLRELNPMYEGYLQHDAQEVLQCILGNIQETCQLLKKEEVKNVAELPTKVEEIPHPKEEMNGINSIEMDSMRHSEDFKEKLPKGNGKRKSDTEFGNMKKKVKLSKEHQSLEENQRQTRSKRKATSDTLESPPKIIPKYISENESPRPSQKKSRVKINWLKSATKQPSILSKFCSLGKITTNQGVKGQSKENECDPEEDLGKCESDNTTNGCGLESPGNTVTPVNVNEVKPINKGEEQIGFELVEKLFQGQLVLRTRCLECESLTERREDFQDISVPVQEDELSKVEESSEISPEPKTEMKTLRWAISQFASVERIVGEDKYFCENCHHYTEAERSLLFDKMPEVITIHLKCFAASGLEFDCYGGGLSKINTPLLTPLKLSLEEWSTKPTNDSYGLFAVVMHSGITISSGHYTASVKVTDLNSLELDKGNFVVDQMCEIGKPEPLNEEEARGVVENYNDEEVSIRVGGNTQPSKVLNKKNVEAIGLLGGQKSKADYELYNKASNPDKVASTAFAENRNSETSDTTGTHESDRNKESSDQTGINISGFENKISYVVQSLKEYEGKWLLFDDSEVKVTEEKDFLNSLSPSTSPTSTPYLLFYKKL
# UniProt P08684, whole entry, looked up: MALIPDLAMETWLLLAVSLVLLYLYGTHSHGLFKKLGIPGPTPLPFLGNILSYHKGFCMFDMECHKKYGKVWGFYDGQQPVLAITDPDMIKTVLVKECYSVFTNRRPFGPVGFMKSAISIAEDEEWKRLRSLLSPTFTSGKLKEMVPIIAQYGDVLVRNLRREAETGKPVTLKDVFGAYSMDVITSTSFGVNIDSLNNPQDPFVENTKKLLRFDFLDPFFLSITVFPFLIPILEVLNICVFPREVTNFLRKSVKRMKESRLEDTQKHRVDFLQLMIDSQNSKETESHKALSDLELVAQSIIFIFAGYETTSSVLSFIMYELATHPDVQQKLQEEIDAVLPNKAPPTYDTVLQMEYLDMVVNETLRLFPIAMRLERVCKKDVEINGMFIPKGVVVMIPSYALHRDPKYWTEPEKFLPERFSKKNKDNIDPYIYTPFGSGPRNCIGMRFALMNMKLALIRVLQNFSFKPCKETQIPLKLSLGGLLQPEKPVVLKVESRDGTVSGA
# UniProt P08482: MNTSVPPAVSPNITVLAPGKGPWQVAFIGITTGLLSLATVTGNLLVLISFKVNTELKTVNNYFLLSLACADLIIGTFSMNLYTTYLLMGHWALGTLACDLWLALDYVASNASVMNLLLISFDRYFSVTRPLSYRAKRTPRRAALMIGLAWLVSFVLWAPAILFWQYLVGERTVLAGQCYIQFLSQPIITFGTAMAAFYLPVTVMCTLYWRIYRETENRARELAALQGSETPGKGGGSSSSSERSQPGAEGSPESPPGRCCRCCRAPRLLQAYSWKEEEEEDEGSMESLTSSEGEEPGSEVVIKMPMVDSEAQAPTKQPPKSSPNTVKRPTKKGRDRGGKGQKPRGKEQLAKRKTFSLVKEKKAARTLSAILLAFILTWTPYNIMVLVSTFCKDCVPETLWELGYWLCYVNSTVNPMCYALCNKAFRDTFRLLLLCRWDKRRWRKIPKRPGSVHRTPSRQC
# Values joined by “and” are separate entries in the source; they are usually repeats but may differ in a detail not shown here. Equal entries are not always repeated. Inconclusive results, whose numbers are uncertain, are shown with a selection of clear calls. For some of these results: Potencies of inconclusive entries are doubtful fits and often do not repeat. Active and inactive are the calls of the source. Unless noted, calls come from the whole dose curve; as a rule, active = well fitted curve in either direction with a large enough effect (not every such curve was filed as active); inconclusive = small, poorly fitted or top-dose-only effect, or another doubt; inactive = flat fitted curve, though single readings scatter.
# Legend:
# [1] = Stat Signaling Pathway (AID 446); conditions: ME-180 SIE beta-lactamase reporter, IL-6 stimulated, 5 h; at 38 µM (top of the series) unless noted;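 note: ME-180 cervical cancer cells given 40 pM IL-6 alongside compound; SIE-controlled beta-lactamase reporter measured as 460/530 nm FRET emission ratio; % is set by controls: 0 for no effect and ±100 for the full control effect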
# Method in brief: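 Overnight-plated ME-180 cells bearing a STAT Inducible Element beta-lactamase reporter; 5 h co-exposure to compound and 40 pM IL-6; values normalized to 300 pM IL-6 and 125 nM JAK inhibitor controls.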
# [2] = qHTS Assay for Identification of Small Molecule Agonists for Hypoxia Response Element Signaling Pathway (AID 914; active = well fitted activation curve with a large enough effect in the signal ratio, with a control signal flat, not every such curve was filed as active; inconclusive = small, poorly fitted or top-dose-only effect, or effect the other way, or a change in a side signal; the % refers to the signal ratio; note: % of control where 0% means no effect); conditions: ME-180 (cervical carcinoma) HRE-bla reporter, beta-lactamase ratio, CoCl2, 17 h; activation: stronger effect = higher value
# Method in brief: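 Positive modulation of EC50 CoCl2-induced hypoxia response element signaling is measured in ME-180 cells with a beta-lactamase reporter. Compounds are titrated, incubation runs 17 hours, and %Activity derives from the blue/green ratio.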
# [3] = biological target: Glucocorticoid receptor (Homo sapiens) (UniProt P04150); assay: GR-GFP Redistribution (AID 450;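 active = compounds whose dose series gives a full or clear partial fitted curve of increased nuclear translocation; inconclusive = weak partial curve or effect only at the top dose; inactive = no dose-dependent translocation response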; note: potency is the fitted concentration of half-maximal effect); conditions: U2OS GR-GFP nuclear translocation, laser cytometry, 2 h
# [4] = Validation screen for inhibitors of Lassa infection (AID 463096; calls by dose curve; note: potency is the fitted concentration of half-maximal effect; for activity change, negative = inhibition: % is set by controls: 0 for no effect and ±100 for the full control effect)
# [5] = biological target: Ubiquitin carboxyl-terminal hydrolase 1 (Homo sapiens) (UniProt O94782); assay: Inhibitors of USP1/UAF1: Pilot qHTS (AID 504865; active = well fitted curve in the direction sought with a large enough effect; inconclusive = small, poorly fitted or top-dose-only effect, or another doubt; inactive = no such curve, though single readings can be large; an effect the other way counts as inactive or inconclusive; note: potency is the fitted concentration of half-maximal effect; nearly all actives have a fitted effect of over 35% in size)
# Method in brief: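 In 50mM HEPES pH 7.8 containing 0.5mM EDTA, 1mM TCEP, 0.1 mg/ml BSA and 0.01% Tween-20, 1nM USP1/UAF1 is exposed to compound for 15 min, then Ub-Rho (150nM final) is added and fluorescence is read over time.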
# [6] = biological target: Cytochrome P450 3A4 (Homo sapiens) (UniProt P08684); assay: qHTS Assay for Inhibitors and Substrates of Cytochrome P450 3A4 (AID 884; active = well fitted curve in the direction sought with a large enough effect; inconclusive = small, poorly fitted or top-dose-only effect, or another doubt; inactive = no such curve, though single readings can be large; an effect the other way counts as inactive or inconclusive; note: potency is the fitted concentration of half-maximal effect; nearly all actives have a fitted effect of over 50% in size)
# Method in brief: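 Luminescent readout of luciferin produced by CYP3A4 (20 nM) dealkylation of Luciferin-PPXE, 25 uM (its KM). NADPH-driven reaction ran 60 min at RT after 10 min compound preincubation; data scaled to 57 uM ketoconazole as 100% inhibition.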
# [7] = qHTS Assay for Identification of Small Molecule Antagonists for NFkB Signaling Pathway (AID 895; active = well fitted inhibition curve with a large enough effect in the signal ratio, with a control signal flat, not every such curve was filed as active; inconclusive = small, poorly fitted or top-dose-only effect, or effect the other way, or a change in a side signal; the % refers to the signal ratio; note: potency is the fitted concentration of half-maximal effect); conditions: NFkB beta-lactamase reporter cells, FRET ratio 460/530; activity change, negative = inhibition: at 38.3 µM (top of the series) unless noted
# Method in brief: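 Beta-lactamase reporter read-out (460 and 530 nm emission ratio, 405 nm excitation, 2 hrs substrate loading RT) after 5 hr stimulation with 10 pM TNF alpha in compound-treated NFkB-bla ME-180 cells in low-serum medium.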
# [8] = qHTS Assay for Identification of Small Molecule Antagonists for Thrombopoietin (TPO) Signaling Pathway (AID 918; active = well fitted curve in the direction sought with a large enough effect; inconclusive = small, poorly fitted or top-dose-only effect, or another doubt; inactive = no such curve, though single readings can be large; an effect the other way counts as inactive or inconclusive); conditions: TPO-dependent cell signaling reporter, antagonist mode; activity change, negative = inhibition: at 38.5 µM (top of the series)
# Method in brief: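 Inhibition read as reduced luciferase luminescence after 24 h at 37 C in IL-3-deprived Ba/F3 cells carrying human TPO receptor and GPIIb-promoter reporter, stimulated with 26 pM TPO (final, its EC50) alongside compound.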
# [9] = biological target: Muscarinic acetylcholine receptor M1 (Rattus norvegicus) (UniProt P08482); assay: qHTS Assay for Antagonists of Acetylcholine Muscarinic M1 Receptor: Kinetic Measurement of Intracellular Calcium Response (AID 943; active = well fitted curve in the direction sought with a large enough effect; inconclusive = small, poorly fitted or top-dose-only effect, or another doubt; inactive = no such curve, though single readings can be large; an effect the other way counts as inactive or inconclusive; note: potency is the fitted concentration of half-maximal effect; nearly all actives have a fitted effect of over 75% in size)
# Method in brief: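 Antagonism measured as reduction of carbachol-evoked (EC80, 100 nM final) calcium flux in rat M1-CHO cells after 10 min compound exposure. Fluo-4 signal read kinetically; ratio of maximal to basal fluorescence.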
# [10] = biological target: Muscarinic acetylcholine receptor M1 (Rattus norvegicus) (UniProt P08482); assay: qHTS Assay for Antagonists of Acetylcholine Muscarinic M1 Receptor: Measurement of IP-One Response (AID 944; active = well fitted curve in the direction sought with a large enough effect; inconclusive = small, poorly fitted or top-dose-only effect, or another doubt; inactive = no such curve, though single readings can be large; an effect the other way counts as inactive or inconclusive; note: potency is the fitted concentration of half-maximal effect; nearly all actives have a fitted effect of over 75% in size)
smiles,measurement,setting,value
NCC1(c2ccc3c(c2)OCCO3)CCCC1,"activity, negative = inhibition",[1],inactive: 5.07% [at 17.2 µM]
c1ccc2c(c1)[nH]c1cnccc12,"activity, negative = inhibition",[1],inactive: 4.07% [at 17.2 µM]
c1cnc(N2CCCC3(CCNCC3)C2)nc1,"activity, negative = inhibition",[1],inactive: -8.67% [at 7.69 µM]
same,activation,[2],inactive: 6.96%
COc1cccc2c1C(=O)c1c(O)c3c(c(O)c1C2=O)C[C@](O)(/C(C)=N\O)C[C@@H]3O[C@H]1C[C@H](N)[C@@H](O)[C@H](C)O1,"activity, negative = inhibition",[1],inconclusive: 109% [activator] [at 7.69 µM]
same,activation,[2],inconclusive: -66.9%
C[C@]12CC[C@@H]3[C@H](CCC4=CC(=O)CC[C@]43C)[C@]1(O)CC[C@@]2(O)C(=O)CO,Potency,[3],active: 0.822 µM
same,activation,[2],inactive: 7.15%
CC(=O)SCC[N+](C)(C)C,Potency,[4],inactive
Brc1ccc([C@H]2CN3CCSC3=N2)cc1,Potency,[4],"inconclusive: 17.8 µM [activator, partial curve, poor fit]"
O=c1[nH]c2ccccc2c(=O)n1-c1cccc(Cl)c1,Potency,[3],inactive: > 20.6 µM
CSc1ccc2c(c1)c(CCN)c(C)n2Cc1ccccc1Cl,"activity, negative = inhibition",[1],inactive: -2.31% [at 7.69 µM]
CC[C@H](CO)NC(=O)[C@H]1C=C2c3cccc4[nH]cc(c34)C[C@@H]2N(C)C1,"activity, negative = inhibition",[1],inactive: 8.6% [at 17.2 µM]
same,activation,[2],inconclusive: -37%
same,Potency,[5],active: 17.8 µM
COc1cc(C[C@H](C)N)c(OC)cc1I,"activity, negative = inhibition",[1],inconclusive: 36.5% [inhibitor]
same,Potency,[6],"inconclusive: 1.58 µM [inhibitor, full curve]"
same,Potency,[7],"inconclusive: 44.7 nM [inhibitor, full curve, poor fit] and inconclusive: 12.6 µM [inhibitor, single point]"
same,activation,[2],inactive: 2.02% and inactive: -7.45%
same,"activity change, negative = inhibition",[8],inconclusive: -11.9% [phenotype inactive] and inconclusive: 18.4% [phenotype inactive]
same,Potency,[9],active: 0.891 µM
same,Potency,[10],"inconclusive: 11.2 µM [inhibitor, partial curve, poor fit]"

# Laid out differently: results already given.
smiles	measurement	setting	value
NCC1(c2ccc3c(c2)OCCO3)CCCC1	activity, negative = inhibition	[1]	inactive: 5.07% [at 17.2 µM]
c1ccc2c(c1)[nH]c1cnccc12	activity, negative = inhibition	[1]	inactive: 4.07% [at 17.2 µM]
C[C@]12CC[C@@H]3[C@H](CCC4=CC(=O)CC[C@]43C)[C@]1(O)CC[C@@]2(O)C(=O)CO	activation	[2]	inactive: 7.15%
COc1cc(C[C@H](C)N)c(OC)cc1I	Potency	[10]	inconclusive: 11.2 µM [inhibitor, partial curve, poor fit]
